Source: article PMC6651687

Target: T1, TTHA0973 (PaaR, TetR family) (Thermus thermophilus HB8) (UniProt Q5SJN5)
T1 sequence (looked up, limits assumed): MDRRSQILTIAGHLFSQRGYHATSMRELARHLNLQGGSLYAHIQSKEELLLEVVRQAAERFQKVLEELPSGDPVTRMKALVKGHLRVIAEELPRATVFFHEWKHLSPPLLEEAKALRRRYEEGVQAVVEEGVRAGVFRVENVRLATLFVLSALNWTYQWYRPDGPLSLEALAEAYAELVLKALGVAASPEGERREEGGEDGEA
Experiment: BLI
Conditions: up to 300 nM protein; BLI with 11, 33, 100, 300 nM TTHA0973; temperature not given (cited protocol); recombinant protein; label: biotin-dT at 5' of strand 2; letters put together from the description

## CTAGGAATTCGTGCAGAGGTGAATCGTCATAGAATTCGTTACCATCCCTCCAGAAGCTTGGACA (double strand) [ST2_REPSAis control]
  binding result: no binding

Construct, isoform or probe ends are uncertain for at least one entry. A negative result means that nothing was seen under these conditions. Where a protein sequence is shown, tags need not be part of it.
